The text below walks through data of ChEMBL document CHEMBL1154797, “Synthesis, anti-bacterial and anti-fungal activities of some novel Schiff bases containing 2,4-disubstituted thiazole ring” (2010).

One may read the MIC as the lowest concentration found to suppress growth. The low end stands for inhibition by little substance, the high end for a need for much substance.

In assay [1] the test system is Pseudomonas aeruginosa. As to the kind of experiment: Antibacterial activity against Pseudomonas aeruginosa at MIC after 24 hrs by disk diffusion assay. The class given is functional. On the technique in general: In agar diffusion tests the substance spreads into inoculated agar from a disc or well.
Assay [2] has as its system Pseudomonas aeruginosa. Put plainly: Antibacterial activity against Pseudomonas aeruginosa. The class given is functional.

≈ marks a conversion by molar mass, not a printed value.

`O=C(O)c1cn(C2CC2)c2cc(N3CCNCC3)c(F)cc2c1=O` [CIPROFLOXACIN]: the “diameter of the inhibition zone (DIZ)” value with Pseudomonas aeruginosa [1] is listed as “<=24 mm”. Besides, the MIC against Pseudomonas aeruginosa [2] came out at 3.12 µg/mL (≈ 9.42 µM).
